Results are given in words; binding and its absence hold for the method and conditions named. Binding seen in cells or lysates may run through a third protein. A result given as binding can be weak or reduced; the word gives no strength. For some assays here: Where a sequence is shown, tags or fusion partners need not be part of it.
Assays:
[1] = target: T1, CASTOR1 in MCF7 cells (not stated (in human MCF7 cells)) (UniProt Q8WTX7); test: co-IP; MCF7 cells; antibody-conjugated agarose beads, immunoblot
T1 sequence: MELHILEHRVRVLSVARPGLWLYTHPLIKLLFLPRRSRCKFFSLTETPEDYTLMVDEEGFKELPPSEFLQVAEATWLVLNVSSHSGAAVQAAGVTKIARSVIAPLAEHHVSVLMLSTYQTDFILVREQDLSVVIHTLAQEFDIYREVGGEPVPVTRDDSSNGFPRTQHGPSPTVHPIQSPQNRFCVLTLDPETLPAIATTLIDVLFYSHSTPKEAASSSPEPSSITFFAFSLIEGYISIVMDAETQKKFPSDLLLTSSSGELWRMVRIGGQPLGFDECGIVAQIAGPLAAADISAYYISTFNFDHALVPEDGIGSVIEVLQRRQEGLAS

[2] = target: T2, Flag-CASTOR1 WT (human cytosolic arginine sensor for mTORC1 subunit 1) (human) (UniProt Q8WTX7); test: co-IP; CASTOR1 with AKT1, AKT1 domains or endogenous AKT; cells not given; lysis in 50 mM Tris-HCl pH 7.4, 150 mM NaCl, 1 mM EDTA, 1% Triton X-100; antibody-conjugated agarose beads at 4 °C overnight; immunoblot
T2 sequence: T1 sequence

binding [1]: binds
binding [2]: binds
Substance: endogenous AKT (human (endogenous in 293T and MCF7)) (enzyme)

From paper PMC7887217
